Results deposited as PubChem BioAssay AID1508597 (Cure First, 2020).

- Test: 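Knock-downs altering ovarian cancer cell survival with or without PARP inhibitor rucaparib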 (primary screen)
- Cells: human ovarian carcinoma lines grown from tumours: OCI-P5x (papillary serous) and OCI-C5x (clear cell)
- Knock-down reagent: siRNA pool against human genes, 1.25 pmol siRNA per well
- Time to read-out: 72 h or 96 h, depending on the cell culture
- Treatment: rucaparib 20 µM (about IC30) or vehicle, present until read-out
- Rucaparib or vehicle: Rucaparib
- Cell line: OCI-P5x (serous)
- Read-out: 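ATP luminescence measured at 72 or 96 h according to the culture, then normalised and expressed as percent viability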
- Direction: viability, normalised: higher = more viable cells remaining
- Active means: 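Active when normalised viability falls below 80 percent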
- Meaning of the calls: active = viability under 80%; inactive = viability 80% or more
Shown is a random part of the about 2,100 reagents, in one setting of the screen. 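Calls flag viability under 80% in either arm, not effects specific to rucaparib; the reference for percent is not stated.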 Entries without a mark were called inactive. Some reagents were tested in more than one well and are listed for each. The record does not give: the 100% reference.

| target gene | technical replicate | viability, normalised (%) |
| --- | --- | --- |
| POLG2 (GeneID 11232) | 1 | 128 |
| POLG2 (GeneID 11232) | 2 | 169 |
| POLG2 (GeneID 11232) | 3 | 131 |
| NEK6 (GeneID 10783) | 1 | 85.4 |
| NEK6 (GeneID 10783) | 2 | 95.3 |
| NEK6 (GeneID 10783) | 3 | 75.9 (active) |
| SIK2 (GeneID 23235) | 1 | 87.1 |
| SIK2 (GeneID 23235) | 2 | 75.6 (active) |
| SIK2 (GeneID 23235) | 3 | 75.9 (active) |
| TRIM33 (GeneID 51592) | 1 | 55 (active) |
| TRIM33 (GeneID 51592) | 1 | 134 |
| TRIM33 (GeneID 51592) | 2 | 67.9 (active) |
| TRIM33 (GeneID 51592) | 2 | 114 |
| TRIM33 (GeneID 51592) | 3 | 61.5 (active) |
| TRIM33 (GeneID 51592) | 3 | 93.7 |
| PDE8B (GeneID 8622) | 1 | 52.7 (active) |
| PDE8B (GeneID 8622) | 2 | 56.7 (active) |
| PDE8B (GeneID 8622) | 3 | 48.4 (active) |
| ATRIP (GeneID 84126) | 1 | 39.3 (active) |
| ATRIP (GeneID 84126) | 2 | 35.3 (active) |
| ATRIP (GeneID 84126) | 3 | 43.9 (active) |
| FANCC (GeneID 2176) | 1 | 77.1 (active) |
| FANCC (GeneID 2176) | 2 | 79.4 (active) |
| FANCC (GeneID 2176) | 3 | 63 (active) |
| TRIB1 (GeneID 10221) | 1 | 87.1 |
| TRIB1 (GeneID 10221) | 1 | 67.4 (active) |
| TRIB1 (GeneID 10221) | 2 | 66.7 (active) |
| TRIB1 (GeneID 10221) | 2 | 66.5 (active) |
| TRIB1 (GeneID 10221) | 3 | 71.2 (active) |
| TRIB1 (GeneID 10221) | 3 | 92.3 |
| ENPP1 (GeneID 5167) | 1 | 54.9 (active) |
| ENPP1 (GeneID 5167) | 2 | 61 (active) |
| ENPP1 (GeneID 5167) | 3 | 53.9 (active) |
| MAP3K7 (GeneID 6885) | 1 | 77 (active) |
| MAP3K7 (GeneID 6885) | 2 | 61.1 (active) |
| MAP3K7 (GeneID 6885) | 3 | 72.7 (active) |

Continued; the last 5 above are carried over.
| target gene | technical replicate | viability, normalised (%) |
| --- | --- | --- |
| ENPP1 (GeneID 5167) | 2 | 61 (active) |
| ENPP1 (GeneID 5167) | 3 | 53.9 (active) |
| MAP3K7 (GeneID 6885) | 1 | 77 (active) |
| MAP3K7 (GeneID 6885) | 2 | 61.1 (active) |
| MAP3K7 (GeneID 6885) | 3 | 72.7 (active) |
| PAK1 (GeneID 5058) | 1 | 112 |
| PAK1 (GeneID 5058) | 2 | 110 |
| PAK1 (GeneID 5058) | 3 | 112 |
| INTS3 (GeneID 65123) | 1 | 84.2 |
| INTS3 (GeneID 65123) | 2 | 75.8 (active) |
| INTS3 (GeneID 65123) | 3 | 74.8 (active) |
| MAP3K10 (GeneID 4294) | 1 | 107 |
| MAP3K10 (GeneID 4294) | 2 | 107 |
| MAP3K10 (GeneID 4294) | 3 | 120 |
| NHEJ1 (GeneID 79840) | 1 | 71.7 (active) |
| NHEJ1 (GeneID 79840) | 1 | 51.4 (active) |
| NHEJ1 (GeneID 79840) | 2 | 45.8 (active) |
| NHEJ1 (GeneID 79840) | 2 | 83.6 |
| NHEJ1 (GeneID 79840) | 3 | 42 (active) |
| NHEJ1 (GeneID 79840) | 3 | 64.1 (active) |
| MAP3K11 (GeneID 4296) | 1 | 103 |
| MAP3K11 (GeneID 4296) | 2 | 106 |
| MAP3K11 (GeneID 4296) | 3 | 89.7 |
| MARVELD3 (GeneID 91862) | 1 | 101 |
| MARVELD3 (GeneID 91862) | 2 | 74.8 (active) |
| MARVELD3 (GeneID 91862) | 3 | 77.1 (active) |
| ACVR2A (GeneID 92) | 1 | 72.7 (active) |
| ACVR2A (GeneID 92) | 2 | 61.4 (active) |
| ACVR2A (GeneID 92) | 3 | 53.9 (active) |
| POLR1C (GeneID 9533) | 1 | 125 |
| POLR1C (GeneID 9533) | 2 | 73 (active) |
| POLR1C (GeneID 9533) | 3 | 115 |
| IFIH1 (GeneID 64135) | 1 | 80.5 |
| IFIH1 (GeneID 64135) | 2 | 51 (active) |
| IFIH1 (GeneID 64135) | 3 | 66.8 (active) |
| DNA2 (GeneID 1763) | 1 | 104 |
| DNA2 (GeneID 1763) | 2 | 85.6 |
| DNA2 (GeneID 1763) | 3 | 95.3 |
| SBDS (GeneID 51119) | 1 | 73.4 (active) |
| SBDS (GeneID 51119) | 2 | 88.7 |
| SBDS (GeneID 51119) | 3 | 56.7 (active) |
| SP100 (GeneID 6672) | 1 | 61.9 (active) |
| SP100 (GeneID 6672) | 2 | 57.9 (active) |
| SP100 (GeneID 6672) | 3 | 61.1 (active) |
